Reference: PMC5835773
These are yes or no findings as the source states them, for the method shown. Some results given as binding are weak or reduced against the parent protein; the word gives no strength.

Chains of the proteins cited; added tags and fusions are not shown.
UniProt O75533: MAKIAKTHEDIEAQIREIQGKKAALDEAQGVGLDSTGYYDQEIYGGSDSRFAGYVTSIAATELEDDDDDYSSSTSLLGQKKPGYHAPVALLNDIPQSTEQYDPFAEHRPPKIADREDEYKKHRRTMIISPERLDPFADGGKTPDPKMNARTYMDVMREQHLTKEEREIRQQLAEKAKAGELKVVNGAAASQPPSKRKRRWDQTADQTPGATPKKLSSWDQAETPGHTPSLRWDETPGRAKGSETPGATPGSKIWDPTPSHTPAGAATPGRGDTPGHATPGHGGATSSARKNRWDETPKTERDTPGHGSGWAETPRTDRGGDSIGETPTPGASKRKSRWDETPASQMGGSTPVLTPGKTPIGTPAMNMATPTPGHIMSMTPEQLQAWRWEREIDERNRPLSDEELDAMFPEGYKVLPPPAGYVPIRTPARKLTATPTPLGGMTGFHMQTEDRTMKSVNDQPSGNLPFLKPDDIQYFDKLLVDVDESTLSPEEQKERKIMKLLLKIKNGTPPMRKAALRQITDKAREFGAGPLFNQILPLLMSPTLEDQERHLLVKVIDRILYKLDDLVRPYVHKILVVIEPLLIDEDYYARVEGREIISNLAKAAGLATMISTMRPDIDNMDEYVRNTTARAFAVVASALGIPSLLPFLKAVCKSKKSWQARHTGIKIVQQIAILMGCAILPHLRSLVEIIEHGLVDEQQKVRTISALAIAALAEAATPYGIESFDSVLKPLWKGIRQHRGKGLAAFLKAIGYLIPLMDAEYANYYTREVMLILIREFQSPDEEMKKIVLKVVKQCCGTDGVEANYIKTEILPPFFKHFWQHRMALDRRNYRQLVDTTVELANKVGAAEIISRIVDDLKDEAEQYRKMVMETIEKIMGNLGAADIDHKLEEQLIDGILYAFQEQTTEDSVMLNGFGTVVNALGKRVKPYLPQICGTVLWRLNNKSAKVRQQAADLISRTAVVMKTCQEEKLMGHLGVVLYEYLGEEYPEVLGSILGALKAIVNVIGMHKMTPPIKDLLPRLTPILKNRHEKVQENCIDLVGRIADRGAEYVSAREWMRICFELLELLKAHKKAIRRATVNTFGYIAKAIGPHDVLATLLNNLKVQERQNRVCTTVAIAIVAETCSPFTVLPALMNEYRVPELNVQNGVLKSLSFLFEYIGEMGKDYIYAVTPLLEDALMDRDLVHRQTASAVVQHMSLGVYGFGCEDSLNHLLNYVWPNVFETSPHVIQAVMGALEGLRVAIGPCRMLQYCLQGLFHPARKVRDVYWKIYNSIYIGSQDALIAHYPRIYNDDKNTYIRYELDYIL
UniProt Q13435: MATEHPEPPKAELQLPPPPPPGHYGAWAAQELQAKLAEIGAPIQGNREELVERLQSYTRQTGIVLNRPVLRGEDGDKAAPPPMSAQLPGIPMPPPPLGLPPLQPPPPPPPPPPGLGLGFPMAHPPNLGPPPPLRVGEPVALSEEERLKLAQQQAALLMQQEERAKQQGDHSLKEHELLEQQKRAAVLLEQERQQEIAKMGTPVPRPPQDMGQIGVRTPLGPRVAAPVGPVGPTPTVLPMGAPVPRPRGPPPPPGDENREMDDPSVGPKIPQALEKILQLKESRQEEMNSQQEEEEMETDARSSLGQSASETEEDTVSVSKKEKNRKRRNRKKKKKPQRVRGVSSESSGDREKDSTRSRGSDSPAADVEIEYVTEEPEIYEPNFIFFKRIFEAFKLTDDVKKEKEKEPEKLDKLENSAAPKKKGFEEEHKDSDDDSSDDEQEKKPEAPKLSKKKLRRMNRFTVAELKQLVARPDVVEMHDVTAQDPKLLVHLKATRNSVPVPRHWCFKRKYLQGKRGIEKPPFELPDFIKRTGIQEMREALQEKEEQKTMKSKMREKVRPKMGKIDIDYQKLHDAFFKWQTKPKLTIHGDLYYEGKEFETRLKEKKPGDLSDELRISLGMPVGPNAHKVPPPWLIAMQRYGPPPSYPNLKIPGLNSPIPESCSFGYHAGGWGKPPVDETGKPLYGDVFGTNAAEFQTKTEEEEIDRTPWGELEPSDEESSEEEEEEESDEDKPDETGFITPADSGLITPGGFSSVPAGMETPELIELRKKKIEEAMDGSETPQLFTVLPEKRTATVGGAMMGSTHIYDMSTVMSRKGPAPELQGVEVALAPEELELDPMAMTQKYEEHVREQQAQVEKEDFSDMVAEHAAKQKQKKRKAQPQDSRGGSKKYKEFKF
UniProt Q15393: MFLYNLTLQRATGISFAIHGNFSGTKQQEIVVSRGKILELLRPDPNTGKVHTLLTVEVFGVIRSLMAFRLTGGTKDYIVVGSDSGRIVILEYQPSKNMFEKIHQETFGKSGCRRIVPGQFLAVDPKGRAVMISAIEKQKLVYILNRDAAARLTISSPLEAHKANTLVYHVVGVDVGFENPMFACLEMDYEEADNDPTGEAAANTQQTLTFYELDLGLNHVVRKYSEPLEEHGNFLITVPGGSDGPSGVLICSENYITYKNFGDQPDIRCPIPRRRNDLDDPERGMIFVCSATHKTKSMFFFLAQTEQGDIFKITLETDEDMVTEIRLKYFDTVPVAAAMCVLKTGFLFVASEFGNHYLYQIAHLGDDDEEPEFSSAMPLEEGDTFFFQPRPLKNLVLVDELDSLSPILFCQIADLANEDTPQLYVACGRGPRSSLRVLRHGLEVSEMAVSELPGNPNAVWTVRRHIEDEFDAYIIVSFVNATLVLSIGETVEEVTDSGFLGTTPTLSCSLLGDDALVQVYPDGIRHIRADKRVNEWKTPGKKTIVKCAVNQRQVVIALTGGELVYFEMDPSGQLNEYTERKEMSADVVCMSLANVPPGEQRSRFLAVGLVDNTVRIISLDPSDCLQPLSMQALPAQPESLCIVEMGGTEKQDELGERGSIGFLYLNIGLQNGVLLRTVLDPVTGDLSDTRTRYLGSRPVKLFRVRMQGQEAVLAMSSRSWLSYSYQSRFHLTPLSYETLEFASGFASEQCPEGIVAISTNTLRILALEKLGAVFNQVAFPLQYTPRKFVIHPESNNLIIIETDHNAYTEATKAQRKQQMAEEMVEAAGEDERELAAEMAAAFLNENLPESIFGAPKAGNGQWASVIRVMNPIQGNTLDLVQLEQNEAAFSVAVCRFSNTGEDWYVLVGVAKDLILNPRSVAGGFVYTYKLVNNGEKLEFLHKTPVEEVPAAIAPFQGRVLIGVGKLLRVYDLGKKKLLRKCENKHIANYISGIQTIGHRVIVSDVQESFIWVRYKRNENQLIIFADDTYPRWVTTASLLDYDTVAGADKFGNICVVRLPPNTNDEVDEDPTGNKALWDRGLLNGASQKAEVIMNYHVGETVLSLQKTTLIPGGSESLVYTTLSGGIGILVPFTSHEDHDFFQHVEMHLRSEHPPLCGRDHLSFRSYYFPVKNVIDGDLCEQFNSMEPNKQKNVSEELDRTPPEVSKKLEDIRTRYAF

Legend:
Test in all cases: cryo-EM structure; human B^act spliceosome assembled on MS2-tagged MINX pre-mRNA in HeLa S3 nuclear extract, purified on amylose resin and a glycerol gradient with glutaraldehyde cross-linking; early (4.9 Å), mature (5.1 Å) and late (6.5 Å) states, SF3b region 4.2 Å; models built by homology modelling and docking of known structures
[1] = target: SF3b155 (human (endogenous in HeLa)) (UniProt O75533)
[2] = target: SF3b145 (human (endogenous in HeLa)) (UniProt Q13435)
[3] = target: T1, SKIP (human (endogenous in HeLa)) (UniProt Q13573)
T1 sequence: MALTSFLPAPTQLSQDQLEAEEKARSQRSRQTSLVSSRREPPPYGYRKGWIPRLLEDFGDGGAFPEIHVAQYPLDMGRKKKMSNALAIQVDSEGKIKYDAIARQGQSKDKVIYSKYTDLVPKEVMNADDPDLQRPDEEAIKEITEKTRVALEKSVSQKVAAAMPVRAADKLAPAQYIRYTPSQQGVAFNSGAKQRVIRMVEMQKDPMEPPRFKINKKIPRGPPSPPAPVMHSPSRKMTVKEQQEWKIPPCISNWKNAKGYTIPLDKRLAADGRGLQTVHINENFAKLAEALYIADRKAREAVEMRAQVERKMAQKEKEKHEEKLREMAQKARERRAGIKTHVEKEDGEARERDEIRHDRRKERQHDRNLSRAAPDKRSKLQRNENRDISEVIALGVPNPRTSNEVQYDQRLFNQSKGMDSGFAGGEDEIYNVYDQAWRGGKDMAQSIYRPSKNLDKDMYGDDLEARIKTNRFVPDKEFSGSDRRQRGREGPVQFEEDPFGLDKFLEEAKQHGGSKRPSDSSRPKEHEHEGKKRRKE

[4] = target: T2, SNIP1 (human (endogenous in HeLa)) (UniProt Q8TAD8)
T2 sequence: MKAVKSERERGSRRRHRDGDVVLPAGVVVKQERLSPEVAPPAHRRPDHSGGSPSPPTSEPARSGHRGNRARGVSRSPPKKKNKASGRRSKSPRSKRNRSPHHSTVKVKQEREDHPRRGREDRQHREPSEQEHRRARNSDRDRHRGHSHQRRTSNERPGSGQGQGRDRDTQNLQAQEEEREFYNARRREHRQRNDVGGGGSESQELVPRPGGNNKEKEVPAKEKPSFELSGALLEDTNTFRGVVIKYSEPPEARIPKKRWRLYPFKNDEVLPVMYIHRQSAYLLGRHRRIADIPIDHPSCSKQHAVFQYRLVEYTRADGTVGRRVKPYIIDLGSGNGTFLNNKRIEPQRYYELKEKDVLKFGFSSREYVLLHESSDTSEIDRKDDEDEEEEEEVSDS

[5] = target: Prp8 (human (endogenous in HeLa)) (UniProt Q6P2Q9)

SF3b145 (from UniProt Q13435 1-895) was tested, and the binding [1] was “binds”.

For SF3b130 (from UniProt Q15393 1-1217), the binding [1] was “binds” and the binding [2] was “binds”.

With SF3b155 (from UniProt O75533 1-1304) the binding [3] was “binds” and the binding [4] was “binds”.

B1: NY-CO-10 (protein, UniProt Q6UX04 1-472)
chain: MSNIYIQEPPTNGKVLLKTTAGDIDIELWSKEAPKACRNFIQLCLEAYYDNTIFHRVVPGFIVQGGDPTGTGSGGESIYGAPFKDEFHSRLRFNRRGLVAMANAGSHDNGSQFFFTLGRADELNNKHTIFGKVTGDTVYNMLRLSEVDIDDDERPHNPHKIKSCEVLFNPFDDIIPREIKRLKKEKPEEEVKKLKPKGTKNFSLLSFGEEAEEEEEEVNRVSQSMKGKSKSSHDLLKDDPHLSSVPVVESEKGDAPDLVDDGEDESAEHDEYIDGDEKNLMRERIAKKLKKDTSANVKSAGEGEVEKKSVSRSEELRKEARQLKRELLAAKQKKVENAAKQAEKRSEEEEAPPDGAVAEYRREKQKYEALRKQQSKKGTSREDQTLALLNQFKSKLTQAIAETPENDIPETEVEDDEGWMSHVLQFEDKSRKVKDASMQDSDTFEIYDPRNPVNKRRREESKKLMREKKERR
With B1 the binding [5] was “binds”.

B2: Bud13 (protein, UniProt Q9BRD0 1-619)
chain: MAAAPPLSKAEYLKRYLSGADAGVDRGSESGRKRRKKRPKPGGAGGKGMRIVDDDVSWTAISTTKLEKEEEEDDGDLPVVAEFVDERPEEVKQMEAFRSSAKWKLLGGHNEDLPSNRHFRHDTPDSSPRRVRHGTPDPSPRKDRHDTPDPSPRRARHDTPDPSPLRGARHDSDTSPPRRIRHDSSDTSPPRRARHDSPDPSPPRRPQHNSSGASPRRVRHDSPDPSPPRRARHGSSDISSPRRVHNNSPDTSRRTLGSSDTQQLRRARHDSPDLAPNVTYSLPRTKSGKAPERASSKTSPHWKESGASHLSFPKNSKYEYDPDISPPRKKQAKSHFGDKKQLDSKGDCQKATDSDLSSPRHKQSPGHQDSDSDLSPPRNRPRHRSSDSDLSPPRRRQRTKSSDSDLSPPRRSQPPGKKAAHMYSGAKTGLVLTDIQREQQELKEQDQETMAFEAEFQYAETVFRDKSGRKRNLKLERLEQRRKAEKDSERDELYAQWGKGLAQSRQQQQNVEDAMKEMQKPLARYIDDEDLDRMLREQEREGDPMANFIKKNKAKENKNKKVRPRYSGPAPPPNRFNIWPGYRWDGVDRSNGFEQKRFARLASKKAVEELAYKWSVEDM
B2 was tested, and the binding [5] was “binds”.
